Measured values as given in US7491721B2, “Antimycobacterial pharmaceutical composition” (priority 2004, dated 2009).
At least one compound was matched to its structure with a doubt left.

Assays:
M. tuberculosis H37Rv = assay: Mycobactericidal activity (kill curve, viable count) of compound of formula (I); assay type: cell-based, Mycobacterium tuberculosis; conditions: at 8× and 16×MIC concentration
mycobacterial culture = assay: Micro broth checkerboard synergy assay with known antitubercular drugs; assay type: cell-based

## Cc1c(CN2CCN(c3cccc(C(F)(F)F)c3)CC2)cc(-c2ccccc2)n1NC(=O)c1ccncc1 [Compound of formula (I)]
M. tuberculosis H37Rv
  cidal or static (cidal = 3 log reduction in viable counts): cidal
Mycobacterial culture; with ethambutol
  In vitro synergy, INTERPRETATION: ADDITIVE
Mycobacterial culture; with ethambutol, listed as compound of formula (I)
  In vitro synergy, INTERPRETATION: additive effect
Mycobacterial culture; with isoniazid
  In vitro synergy, INTERPRETATION: INDIFFERENT
Mycobacterial culture; with isoniazid, listed as compound of formula (I)
  In vitro synergy, INTERPRETATION: not found to be affected
Mycobacterial culture; with moxifloxacin
  In vitro synergy, INTERPRETATION: ANTAGONISTIC
Mycobacterial culture; with rifampicin
  In vitro synergy, INTERPRETATION: SYNERGY
Mycobacterial culture; with rifampicin, listed as compound of formula (I)
  In vitro synergy, INTERPRETATION: synergistic activity
